Measurements: patent publication US20250381242A1 (INVAIO SCIENCES, INC., priority 2024, published 2025)
Some entries share one result that the patent states for a list of compounds. Residues, ends and D or L forms follow the SMILES beside them.

Tests used:
[1] = system: E. coli; experiment: Bacterial growth inhibition by OD600 absorbance, E. coli; type: cell-based, E. coli (DH5-alpha); details: peptide 10 μM, 24 hours at 37° C., OD 600 nm
Protocol: (§1) Antimicrobial activity of antimicrobial peptides was tested against the agricultural microbial pests A. tumefaciens, E. amylovora, E. coli, and X. citri, using OD absorbance measurement to detect bacterial growth.
(§2) Antimicrobial peptides were synthesized using solid phase peptide synthesis method and resuspended in 10% DMSO to a 1 mM stock concentration. The stock solution was aliquoted in cryovials and stored at −80° C.
(§3) An aliquot of 198 μl of the bacterial culture was added to each well in a 96-well plate and 2 μl of a 1 mM peptide stock solution was added to each well, for a final treatment concentration of 10 μM of a given peptide. Media only wells were included to control for contamination. The positive controls were 50 μg/ml oxytetracycline hydrochloride and 500 μg/ml streptomycin sulfate. A 0.1% DMSO treatment was included as a negative control.
(§4) An initial absorbance reading of the bacterial suspensions was taken at 600 nm. Then, the bacteria were grown in an incubator at 30° C. (A. tumefaciens, E. amylovora, X. citri) or 37° C. (E. coli) for 24 hours, after which the final absorbance reading was measured. Using the initial and final absorbance reading compared to negative and positive controls, the percent inhibition of the bacterial strain by given peptide treatment was determined.

[2] = system: X. citri; experiment: Bacterial growth inhibition by OD600 absorbance, X. citri; type: cell-based, X. citri subsp. citri (ATCC 49118); details: peptide 10 μM, 24 hours at 30° C., OD 600 nm
Protocol: as §1, §2, §3, §4

Structure (SMILES) | growth inhibition, E. coli [1] | growth inhibition, X. citri [2]
CC[C@H](C)[C@H](NC(=O)[C@H](Cc1ccccc1)NC(=O)[C@H](CO)NC(=O)[C@H](CCCCN)NC(=O)[C@H](Cc1c[nH]c2ccccc12)NC(=O)[C@@H](N)CCCCN)C(=O)N[C@@H](CCCCN)C(=O)N[C@@H](CC(N)=O)C(=O)N[C@@H](CC(C)C)C(=O)N[C@@H](CCC(=O)O)C(=O)N[C@@H](CCCCN)C(=O)N[C@H](C(=O)N[C@@H](CC(C)C)C(=O)N[C@@H](CCCCN)C(=O)N[C@@H](CCCCN)C(=O)NCC(=O)N1CCC[C@H]1C(=O)N[C@H](C(=O)N[C@@H](CC(C)C)C(=O)N[C@@H](C)C(=O)N[C@@H](CC(N)=O)C(=O)N[C@@H](CC(C)C)C(=O)N[C@H](C(=O)N[C@@H](CO)C(=O)N[C@H](C(=O)N[C@H](C(=O)O)C(C)C)[C@@H](C)CC)C(C)C)[C@@H](C)CC)C(C)C [SEQ ID NO: 23] (H-KWKSFIKNLEKVLKKGPILANLVSIV-OH; N-terminus and C-terminus assumed) | greater than 90% | greater than 90%
CC(C)C[C@H](NC(=O)[C@H](C)NC(=O)CNC(=O)[C@H](CS)NC(=O)[C@H](C)NC(=O)[C@H](CCCCN)NC(=O)[C@H](CO)NC(=O)[C@H](C)NC(=O)[C@H](Cc1ccccc1)NC(=O)CNC(=O)[C@H](C)NC(=O)[C@@H](NC(=O)[C@H](CCCCN)NC(=O)[C@H](CCCNC(=N)N)NC(=O)CNC(=O)[C@H](C)NC(=O)[C@H](CC(N)=O)NC(=O)[C@H](CCCNC(=N)N)NC(=O)[C@@H](NC(=O)[C@H](CCCCN)NC(=O)[C@H](CC(=O)O)NC(=O)[C@@H](NC(=O)[C@@H](NC(=O)[C@H](CCCNC(=N)N)NC(=O)[C@H](CCCNC(=N)N)NC(=O)[C@H](Cc1c[nH]c2ccccc12)NC(=O)[C@H](Cc1c[nH]c2ccccc12)NC(=O)CN)[C@@H](C)O)C(C)C)C(C)C)C(C)C)C(=O)NCC(=O)N[C@@H](Cc1c[nH]cn1)C(=O)O [SEQ ID NO: 13] (H-GWWRRTVDKVRNAGRKVAGFASKACGALGH-OH; N-terminus and C-terminus assumed) | greater than 90% | greater than 90%
CC[C@H](C)[C@H](N)C(=O)N[C@@H](Cc1c[nH]c2ccccc12)C(=O)N[C@@H](CO)C(=O)N[C@@H](Cc1ccccc1)C(=O)N[C@@H](CC(C)C)C(=O)N[C@H](C(=O)N[C@@H](CCCCN)C(=O)N[C@@H](C)C(=O)N[C@@H](C)C(=O)N[C@H](C(=O)N[C@@H](CCCCN)C(=O)N[C@@H](CC(C)C)C(=O)N[C@@H](CC(C)C)C(=O)N1CCC[C@H]1C(=O)N[C@@H](CO)C(=O)N[C@@H](CC(C)C)C(=O)N[C@@H](Cc1ccccc1)C(=O)NCC(=O)NCC(=O)NCC(=O)N[C@@H](CCCCN)C(=O)N[C@@H](CCCCN)C(=O)N[C@@H](CC(=O)O)C(=O)N[C@@H](CO)C(=O)O)[C@@H](C)O)[C@@H](C)CC [SEQ ID NO: 39] (H-IWSFLIKAATKLLPSLFGGGKKDS-OH; N-terminus and C-terminus assumed) | greater than 90% | greater than 90%
CC(C)C[C@H](NC(=O)[C@@H](NC(=O)[C@H](CC(N)=O)NC(=O)[C@H](C)NC(=O)[C@H](Cc1c[nH]c2ccccc12)NC(=O)[C@H](CC(C)C)NC(=O)[C@H](CCCNC(=N)N)NC(=O)[C@H](CC(C)C)NC(=O)[C@H](C)NC(=O)[C@H](CCCCN)NC(=O)[C@H](CCCCN)NC(=O)[C@H](CC(C)C)NC(=O)[C@H](CC(C)C)NC(=O)[C@H](CO)NC(=O)[C@H](Cc1c[nH]c2ccccc12)NC(=O)[C@H](Cc1ccccc1)NC(=O)[C@@H](N)CCCCN)C(C)C)C(=O)O [SEQ ID NO: 76] (H-KFWSLLKKALRLWANVL-OH; N-terminus and C-terminus assumed) | greater than 90% | greater than 90%
CC(C)C[C@H](NC(=O)[C@H](Cc1c[nH]c2ccccc12)NC(=O)[C@H](CCCCN)NC(=O)[C@H](CCCCN)NC(=O)[C@H](C)NC(=O)[C@H](CO)NC(=O)[C@H](Cc1c[nH]cn1)NC(=O)[C@H](CC(C)C)NC(=O)[C@H](Cc1ccccc1)NC(=O)[C@H](CCCCN)NC(=O)[C@@H](N)CCCCN)C(=O)N[C@@H](CCCCN)C(=O)N[C@@H](C)C(=O)N[C@@H](Cc1ccccc1)C(=O)N[C@H](C(=O)N[C@@H](CCCCN)C(=O)N[C@@H](CC(C)C)C(=O)N[C@@H](Cc1ccccc1)C(=O)N[C@@H](CCCCN)C(=O)N[C@@H](CC(N)=O)C(=O)N[C@@H](Cc1c[nH]c2ccccc12)C(=O)O)C(C)C [SEQ ID NO: 33] (H-KKFLHSAKKWLKAFVKLFKNW-OH; N-terminus and C-terminus assumed) | greater than 90% | greater than 90%
